Source: patent publication US10889596B2, “Beta-amino pateamine a derivatives and methods for treating chronic lymphocytic leukemia” (The Texas A&M University System, priority 2016, dated 2021)
Some entries share one result that the patent states for a list of compounds.

System: CLL cells
Test: Median effect analysis of DMDAPatA with ABT-199 in CLL samples
Format: cell-based, human
Conditions: DMDAPatA combined with ABT-199, four CLL samples

Question: How did the combination index turn out when `CC(/C=C/C(C)=C/[C@@H]1Cc2nc(cs2)CCCCC(=O)O[C@@H](C)C/C(C)=C/C=C\C(=O)O1)=C\CN(C)C` [DMDAPatA, Des-methyl, des-amino Pateamine A] was run?
Answer: Its combination index is “less than 1”.
